Assay results reported in PMC12040169 (PLOS Biology, 2025).
The list shows a part of the results.

Each compound was assayed on T1, CTL2-GFP (C. trachomatis L2/434/Bu, GFP-expressing). Settings: bulk GFP, single well; 28.5 h, 10 µM; inhibitor.
T1 construct: L2/434/Bu, GFP-expressing
Parameters: species or system HeLa; Intracellular C. trachomatis growth in HeLa cells, bulk GFP fluorescence relative to DMSO

In order of rising “% of control remaining” value:
1. COc1cc(C)c(Nc2cccc(-c3ccc(O)cc3)n2)cc1OC [CBK037608]  49.5536%
2. O=C(O)CCc1ccc(-c2cccs2)n1CCc1ccccc1 [CBK265983]  70.5605%
3. Cc1nc2ccc(C(=O)N(C)CCN(C)C)cn2c1N(C)C(=O)c1cccs1 [CBK146528]  90.4107%
4. C[C@H](NC1=NC(=O)[C@@](C)(C(C)(C)O)S1)c1ccc(F)cc1 [CBK138436]  91.9967%
5. CNCc1ccccc1Sc1cccc(OC)c1 [CBK026207C]  96.2892%
6. CC1CCCCN1C(=O)Cn1ncn2c(cc3ccsc32)c1=O (centres unmarked) [CBK284201]  97.1674%
7. CC(Oc1cccc(Cl)c1)C(=O)Nc1ncccn1 (centres unmarked) [CBK265450]  100%
8. COc1cccc2cc(C(=O)N3CCN(C4CCN(C)CC4)CC3)oc12 [CBK149086]  100%
9. O=C(COc1ccc(-c2ccccc2)cc1)N1CCN(S(=O)(=O)c2ccc([N+](=O)[O-])cc2)CC1 [CBK264297]  100%
10. c1ccc(-c2oc3ncn4nc(COc5cccc6ccccc56)nc4c3c2-c2ccccc2)cc1 [CBK262898]  100%
11. c1ccc(-c2cc3nccc(-c4ccccc4)n3n2)cc1 [CBK287871]  101.647%
12. Cc1cc(SCC(=O)Nc2cccc3ccccc23)nc2c(C)cccc12 [CBK268005]  102.75%
13. CC(SCc1ccccc1)C(=O)NC(C)c1ccccc1 (centres unmarked) [CBK263772]  103.691%
14. O=c1n(-c2cccc(C(F)(F)F)c2)ccn1S(=O)(=O)c1ccc(N2CCOCC2)nc1 [CBK106590]  103.817%
15. CC12CN3CC(C)(CN(C1)C3c1ccc(O)cc1)C2O (centres unmarked) [CBK262663]  104.653%
16. COCCc1noc(CC2CCN(c3ccc(C#N)nc3)CC2)n1 [CBK304094]  104.751%
17. O=[N+]([O-])c1ccc(CN2CCC(Oc3nccnc3OCC3COc4ccccc4O3)CC2)cc1 (centres unmarked) [CBK082984T]  106.78%
18. Cc1ccccc1-c1noc(CSc2nnc(-c3ccncc3)n2-c2ccc(F)cc2)n1 [CBK269089]  108.415%
19. O=C1N=C(NC2C3CC4CC(C3)CC2C4)OC12CCCC2 (centres unmarked) [CBK113576]  108.514%
20. NC(=O)c1cccc(-n2ncc(-c3cccnc3)n2)c1 [CBK112806]  108.849%
21. COC(=O)C1CCN(C(=O)c2ccc(Oc3cccc(Br)c3)nc2)CC1 [CBK304235]  110.188%
22. c1cc(Sc2nccnc2N2CCCC2)ccn1 [CBK093807]  111.318%
23. CC(C)c1cc(C(=O)NC(c2ccccc2)c2ccnn2C)n(C)n1 (centres unmarked) [CBK282535]  111.848%
24. CN1CCN(C(=O)c2[nH]c3ccccc3c2NS(=O)(=O)c2cc(F)c(Br)cc2F)CC1 [CBK050051]  113.924%
25. O=C(O)CC1CCC2(CC1)Cc1ccccc1C2 [CBK012397]  115.728%
26. CN(Cc1ccc(-c2ccc(S(C)(=O)=O)cc2)nc1)C1CCN(C(=O)CC(F)(F)F)CC1 [CBK164098T]  117.032%
27. Cc1ccc(NC(=O)CSc2nc3[nH]ncc3c(=O)[nH]2)cc1 [CBK287675]  119.739%
28. O=[N+]([O-])c1ccc(N2CCN(S(=O)(=O)c3ccc4ccccc4c3)CC2)c(C(F)(F)F)c1 [CBK264827]  124.261%
29. Cc1ccc(C(C)C)c(OC(=O)c2ccc3nccnc3c2)c1 [CBK269114]  124.274%
30. COc1cccc(C(=O)Nc2cnn(CCCC(=O)O)c2)c1 [CBK269879]  126.722%
31. Cc1noc2nc(C3CCN(C(=O)C4CC4C)CC3)cc(C(F)F)c12 (centres unmarked) [CBK285307]  127.96%
32. FC(F)(F)c1cccc(OCCOc2ccccc2)n1 [CBK115835]  128.68%
33. O=C(c1ccco1)N1CCN(c2cncc(-c3cccs3)n2)CC1 [CBK065518]  129.052%
34. Cc1ccc(C)c(-c2csc(NS(=O)(=O)c3cccc(C(=O)O)c3)n2)c1 [CBK296696]  129.444%
35. CC1CCc2nn(CCNC(=O)Cc3ccccc3F)c(=O)cc2C1 (centres unmarked) [CBK284482]  130.837%
36. O=C(OCCCc1cccnc1)c1cc(=O)[nH]c2ccccc12 [CBK295631]  132.715%
37. CN1C[C@@H](NC(=O)NCc2ccccc2)C[C@H]1c1nc(-c2cncnc2)no1 [CBK288878]  135.368%
38. O=c1[nH]c2ncc(-c3cccc4ccccc34)nc2n1Cc1cccnc1 [CBK064274]  136.393%
39. CC(=O)NC(c1ccccn1)C1CCCN(C(=O)C(C)(C)C)C1 (centres unmarked) [CBK285101]  137.093%
40. CC(=O)Nc1cccc(C(=O)N2CCC(OCc3ccccn3)CC2)c1 [CBK307009]  138.22%
41. COC(=O)c1ccc(N2CCOCC2)c(NC(=O)COc2ccccc2)c1 [CBK270222]  138.379%
42. CCN1CCN(C(=O)CCn2c(C(F)F)cc3cccnc32)CC1 [CBK285026]  142.07%
43. Cc1cc(C)n(-c2ccc(N3CCC4(CC3)OCCO4)nn2)n1 [CBK305255]  144.772%
44. N#Cc1cccc(NC(=O)NC[C@H]2C[C@@H]3CC[N@]2C[C@@H]3CN2CCCCC2)c1 [CBK288765]  145.466%
45. Cc1ccc(C2(O)CCN(C(=O)CC3CCN(C(=O)CC4CCCCC4)CC3)C2)cc1 (centres unmarked) [CBK286132]  147.77%
46. O=C1CCC(=O)N1CCn1c(=O)n(C(=O)CCCOc2ccc(Cl)cc2)c2ccccc21 [CBK106496]  166.967%
47. O=C(Nc1ccc(Cl)c(C(=O)O)c1)c1cccc(-n2cnnc2)c1 [CBK270016]  168.83%
48. N#Cc1cn(Cc2ccco2)c(=O)[nH]c1=O [CBK010407]  175.678%
49. COCCNS(=O)(=O)c1ccc(Br)c(C(=O)N(C)Cc2cnn(C)c2)c1 [CBK304795]  176.123%
50. CCNC(=O)c1cnc(-c2ccc(F)cc2)c(-c2ccncc2)c1 [CBK037477]  196.191%
